Counter-ions that a name gives are not always drawn. ± gives the standard deviation of the averaged measurements. The list shows a part of the results. The data scatter; read single values as rough.
Key:
[1] = system: hAMSC donor 1; test: Hoechst total cell count ratio vs vehicle control; higher = more cells (less toxicity)
[2] = system: hAMSC donor 2; test: as above
[3] = system: hAMSC donor 2; test: transgenic luciferase activity (RLU/mg protein) fold change vs vehicle control (ratio); higher = more transgene expression
[4] = system: hAMSC donor 1; test: transfection efficiency (EGFP+ cells / Hoechst count) fold change vs vehicle control (ratio); hAMSC are human adipose-derived mesenchymal stem cells given an EGFP-luciferase plasmid by lipofection; higher = enhanced transfection
[5] = system: hAMSC donor 2; test: as above
[6] = priming compound concentration 0.2 µM
[7] = priming compound concentration 1.7 µM
[8] = priming compound concentration 13 µM

| SMILES | Hoechst total cell count ratio [1, 6] | Hoechst total cell count ratio [1, 7] | Hoechst total cell count ratio [1, 8] | Hoechst total cell count ratio [2, 6] | Hoechst total cell count ratio [2, 7] | Hoechst total cell count ratio [2, 8] | transgenic luciferase activity [3, 8] | transfection efficiency [4, 6] | transfection efficiency [4, 7] | transfection efficiency [4, 8] | transfection efficiency [5, 6] | transfection efficiency [5, 7] | transfection efficiency [5, 8] | transgenic luciferase activity [3, 7] |
| --- | --- | --- | --- | --- | --- | --- | --- | --- | --- | --- | --- | --- | --- | --- |
| CNCC[C@@H](Oc1ccccc1C)c1ccccc1 [Atomoxetine hydrochloride] | 1.1 ± 0.17 | 1.35 ± 0.043 | 1.18 ± 0.14 | 1.05 ± 0.073 | 1.07 ± 0.022 | 1.07 ± 0.046 | 0.598 ± 0.12 | 1.17 ± 0.2 | 0.722 ± 0.18 | 1.33 ± 0.4 | 1.06 ± 0.11 | 1.01 ± 0.22 | 1.3 ± 0.3 |  |
| CCN1CCC[C@H]1CNC(=O)c1c(O)c(Cl)cc(Cl)c1OC [Raclopride] | 1.15 ± 0.087 | 1.28 ± 0.035 | 1.12 ± 0.22 | 1.18 ± 0.24 | 1.1 ± 0.0043 | 0.931 ± 0.1 | 1.15 ± 0.23 | 0.913 ± 0.16 | 0.938 ± 0.21 | 0.819 ± 0.41 | 1.04 ± 0.11 | 0.979 ± 0.083 | 1.03 ± 0.16 |  |
| Cc1c(C(=O)NN2CCCCC2)nn(-c2ccc(Cl)cc2Cl)c1-c1ccc(I)cc1 |  |  |  |  |  |  | 0.929 ± 0.29 | 0.845 ± 0.11 | 0.912 ± 0.28 | 0.579 ± 0.19 | 0.927 ± 0.1 | 1.59 ± 0.23 | 0.875 ± 0.061 |  |
| CNC(=N)NCCC[C@H](N)C(=O)O [L-NMMA acetate] | 1.02 ± 0.032 | 1.43 ± 0.15 | 1.21 ± 0.048 | 0.828 ± 0.13 | 1.18 ± 0.049 | 0.888 ± 0.067 | 1.65 ± 0.78 | 0.925 ± 0.36 | 1.13 ± 0.11 | 1.2 ± 0.33 | 1.03 ± 0.12 | 1.34 ± 0.097 | 1.26 ± 0.069 |  |
| O=c1c(O[C@@H]2O[C@H](CO)[C@H](O)[C@H](O)[C@H]2O)c(-c2ccc(O)c(O)c2)oc2cc(O)cc(O)c12 [Hyperoside] | 0.984 ± 0.12 | 1.38 ± 0.28 | 1.36 ± 0.021 | 0.874 ± 0.17 | 1.18 ± 0.12 | 0.987 ± 0.13 | 0.445 ± 0.23 | 1 ± 0.36 | 0.7 ± 0.18 | 0.796 ± 0.14 | 1.02 ± 0.17 | 1.05 ± 0.094 | 1.14 ± 0.18 |  |
| COc1cc2c(cc1OC)C(=O)C(CC1CCN(Cc3ccccc3)CC1)C2 (stereo unspecified) [Donepezil hydrochloride] | 1.15 ± 0.042 | 0.896 ± 0.24 | 0.935 ± 0.029 | 1.2 ± 0.31 | 1.03 ± 0.044 | 0.984 ± 0.073 | 0.546 ± 0.01 | 1.74 ± 1.6 | 1.43 ± 0.69 | 0.999 ± 0.14 | 1.12 ± 0.33 | 1.27 ± 0.26 | 1.28 ± 0.057 |  |
| CN(C)CCCSc1ccccc1NC(=O)/C=C/c1ccccc1 [Cinanserin] | 0.954 ± 0.26 | 1.19 ± 0.12 | 1.15 ± 0.038 | 1.06 ± 0.3 | 0.983 ± 0.01 | 1.08 ± 0.065 | 0.693 ± 0.16 | 1.19 ± 0.52 | 0.759 ± 0.024 | 0.825 ± 0.18 | 1.07 ± 0.067 | 1.22 ± 0.035 | 0.928 ± 0.13 |  |
| COCCCC/C(=N\OCCN)c1ccc(C(F)(F)F)cc1 [Fluvoxamine maleate] | 1.16 ± 0.13 | 1.22 ± 0.18 | 1.35 ± 0.2 | 0.859 ± 0.25 | 1.14 ± 0.034 | 1.06 ± 0.086 | 1.3 ± 0.37 | 0.677 ± 0.35 | 0.719 ± 0.11 | 0.63 ± 0.26 | 0.934 ± 0.13 | 1.01 ± 0.031 | 0.876 ± 0.21 |  |
| CCS(=O)(=O)CCn1c([N+](=O)[O-])cnc1C [Tinidazole] | 1.45 ± 0.12 | 1.21 ± 0.025 | 1.67 ± 0.21 | 1.38 ± 0.086 | 1.44 ± 0.11 | 0.9863 ± 0.0032 | 0.68 ± 0.033 | 0.799 ± 0.051 | 1.04 ± 0.17 | 0.809 ± 0.34 | 0.847 ± 0.15 | 0.952 ± 0.021 | 0.942 ± 0.075 |  |
| CC(=O)[C@H]1CC[C@H]2[C@@H]3CCC4=CC(=O)CC[C@]4(C)[C@H]3CC[C@]12C [Progesterone] | 1.22 ± 0.044 | 1.34 ± 0.33 | 1.23 ± 0.05 | 1.01 ± 0.044 | 1.23 ± 0.025 | 0.99 ± 0.11 | 1.06 ± 0.058 | 0.762 ± 0.069 | 0.766 ± 0.22 | 0.849 ± 0.17 | 1.01 ± 0.1 | 0.932 ± 0.038 | 1.24 ± 0.13 |  |
| CCOC(=O)c1ccc(OC(=O)CCCCCNC(=N)N)cc1 [Gabexate mesilate] | 1.82 ± 0.12 | 1.39 ± 0.16 | 2.29 ± 0.11 | 1.07 ± 0.22 | 1.01 ± 0.099 | 0.948 ± 0.089 | 0.697 ± 0.1 | 0.805 ± 0.086 | 1.07 ± 0.08 | 0.512 ± 0.13 | 1.02 ± 0.096 | 1.28 ± 0.13 | 1.02 ± 0.11 |  |
| N[C@@H](C(=O)N[C@@H]1C(=O)N2C(C(=O)O)=C(CSc3cn[nH]n3)CS[C@H]12)c1ccc(O)cc1 [Cefatrizine propylene glycol] | 1.43 ± 0.26 | 1.08 ± 0.11 | 1.45 ± 0.074 | 1.18 ± 0.096 | 1.34 ± 0.053 | 1.39 ± 0.075 |  | 1.1 ± 0.22 | 1.62 ± 0.16 | 1.31 ± 0.2 | 0.921 ± 0.061 | 1.03 ± 0.064 | 1.04 ± 0.064 | 0.521 ± 0.093 |
| COc1ccc(CC(C)NCC(O)c2ccc(O)c(NC=O)c2)cc1 (stereo unspecified) [Formoterol fumarate dihydrate] | 1.2 ± 0.18 | 1.22 ± 0.33 | 1.51 ± 0.093 | 1.1 ± 0.23 | 1.2 ± 0.26 | 1.59 ± 0.15 |  | 0.837 ± 0.25 | 1.34 ± 0.3 | 0.914 ± 0.2 | 0.772 ± 0.26 | 1.17 ± 0.057 | 0.889 ± 0.52 | 0.51 ± 0.083 |
| COc1ccc2c3c1O[C@H]1C[C@@H](O)C=C[C@@]31CCN(C)C2 [Galanthamine hydrobromide] | 1.72 ± 0.12 | 1.23 ± 0.21 | 2.05 ± 0.2 | 1.04 ± 0.1 | 0.944 ± 0.073 | 0.914 ± 0.08 | 0.891 ± 0.093 | 0.761 ± 0.29 | 1.29 ± 0.072 | 0.339 ± 0.08 | 1.1 ± 0.3 | 1.356 ± 0.01 | 0.932 ± 0.14 |  |

Compounds listed so far containing four or more nitrogen atoms (3):

| SMILES | Hoechst total cell count ratio [1, 6] | Hoechst total cell count ratio [1, 7] | Hoechst total cell count ratio [1, 8] | Hoechst total cell count ratio [2, 6] | Hoechst total cell count ratio [2, 7] | Hoechst total cell count ratio [2, 8] | transgenic luciferase activity [3, 8] | transfection efficiency [4, 6] | transfection efficiency [4, 7] | transfection efficiency [4, 8] | transfection efficiency [5, 6] | transfection efficiency [5, 7] | transfection efficiency [5, 8] | transgenic luciferase activity [3, 7] |
| --- | --- | --- | --- | --- | --- | --- | --- | --- | --- | --- | --- | --- | --- | --- |
| Cc1c(C(=O)NN2CCCCC2)nn(-c2ccc(Cl)cc2Cl)c1-c1ccc(I)cc1 |  |  |  |  |  |  | 0.929 ± 0.29 | 0.845 ± 0.11 | 0.912 ± 0.28 | 0.579 ± 0.19 | 0.927 ± 0.1 | 1.59 ± 0.23 | 0.875 ± 0.061 |  |
| CNC(=N)NCCC[C@H](N)C(=O)O [L-NMMA acetate] | 1.02 ± 0.032 | 1.43 ± 0.15 | 1.21 ± 0.048 | 0.828 ± 0.13 | 1.18 ± 0.049 | 0.888 ± 0.067 | 1.65 ± 0.78 | 0.925 ± 0.36 | 1.13 ± 0.11 | 1.2 ± 0.33 | 1.03 ± 0.12 | 1.34 ± 0.097 | 1.26 ± 0.069 |  |
| N[C@@H](C(=O)N[C@@H]1C(=O)N2C(C(=O)O)=C(CSc3cn[nH]n3)CS[C@H]12)c1ccc(O)cc1 [Cefatrizine propylene glycol] | 1.43 ± 0.26 | 1.08 ± 0.11 | 1.45 ± 0.074 | 1.18 ± 0.096 | 1.34 ± 0.053 | 1.39 ± 0.075 |  | 1.1 ± 0.22 | 1.62 ± 0.16 | 1.31 ± 0.2 | 0.921 ± 0.061 | 1.03 ± 0.064 | 1.04 ± 0.064 | 0.521 ± 0.093 |

— the supplement of paper PMC7238544
